At least one structure is not confirmed: it was looked up by name or label, or the drawing left a doubt.
Tested on: mice (zymosan-induced peritonitis)
Test: Zymosan-induced peritonitis in mice
Format: in vivo, mice (C57BL/6NCR)
Conditions: dexamethasone 100 mg/ml i.p. with zymosan
Method: In a second model, peritonitis was induced in mice by intraperitoneal (i.p.) injection of zymosan either alone or in combination with dexamethasone or the NBD peptides. For zymosan-induced peritonitis, measurement of peritoneal exudates and inflammatory cell collections from replicate groups of age and sex matched mice (C57BL/6NCR) were performed as previously described (Getting et al., (1998) Immunology 95, 625-630). Groups of animals were injected concomitantly with one ml zymosan (1 mg/ml) and either dexamethasone (100 mg/ml) or the NBD peptides (200 mg/ml). The concentration of NOX (nitrate plus nitrite) present in the inflammatory exudates was measured using a colorimetric assay kit (Alexis Corporation) according to the manufacturers protocol.

C[C@@H]1C[C@H]2[C@@H]3CCC4=CC(=O)C=C[C@]4(C)[C@@]3(F)[C@@H](O)C[C@]2(C)[C@@]1(O)C(=O)CO [dexamethasone]
PMN accumulation: significantly reduced
exudate formation: significantly reduced

— patent publication US8242240B2, “Anti-inflammatory compounds and uses thereof” (Yale University, priority 2000, dated 2012)
